Source: PubChem BioAssay AID602196 (INSERM, 2012)

Assay: 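Modifiers of cisplatin sensitivity in A549 cells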
Cells: human A549 lung cancer cells
Reagent: siRNA pair against human genes
Time to read-out: 48 h transfection before cisplatin; time from cisplatin to read-out not stated
Treatment: cisplatin at a dose killing half of control-siRNA cells; exact dose and duration not given
Detection: 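Cisplatin cell death as a shift from the 50% death seen with control siRNA; siRNAs toxic or growth-blocking alone scored 0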
Scale: two-siRNA summed score (-2 to +2): higher = both siRNAs protect from cisplatin killing; -2 means both sensitise; mean protection from cisplatin (shift in death) and protection from cisplatin (shift in death), siRNA C and protection from cisplatin (shift in death), siRNA D: higher = protection from cisplatin killing
Rule for the call: 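siRNAs harmful alone (LDH or WST-1) get 0; others get +1 for less and -1 for more cisplatin killing; genes are active when the two siRNAs give the same sign, summing to ±2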
Calls: active = both siRNAs shift cisplatin killing the same way; inactive = no consistent shift, or siRNA harmful alone
In all, the deposit lists about 23,000 reagents; this is an unselected part. 455 of them (2%) were called active. 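Active includes both protection and sensitisation; some change values fall well beyond the stated -50 to +50 range.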 Not stated in the record: the amount of reagent.

Target gene | PubChem SID | two-siRNA summed score (-2 to +2) | mean protection from cisplatin (shift in death) (%) | protection from cisplatin (shift in death), siRNA C (%) | protection from cisplatin (shift in death), siRNA D (%) | Call
GUCY2D | SID131500434 | -1 | -32.3 | -25 | -39.6 | inactive
RAB11FIP5 | SID131521152 | 1 | 12.4 | 6.3 | 18.4 | inactive
PHF6 | SID131523209 | 2 | 26.4 | 21 | 31.8 | active
POC5 | SID131505828 | 0 | -2.5 | 6.8 | -11.8 | inactive
MSTO1 | SID131505392 | 0 | -3.2 | -1.9 | -4.5 | inactive
CSF2RA | SID131504437 | 0 | -5.4 | -0.6 | -10.2 | inactive
EMILIN2 | SID131507055 | 0 | -0.6 | 6.3 | -7.6 | inactive
STK11 | SID131523193 | 2 | 24.7 | 25.3 | 24.2 | active
RRAGD | SID131506378 | 0 | -1.6 | 2.6 | -5.8 | inactive
CNIH2 | SID131511727 | 0 | 4.7 | 0.7 | 8.7 | inactive
KLHL17 | SID131521293 | 1 | 12.9 | 5.4 | 20.4 | inactive
LOC442011 | SID131522666 | 1 | 21.5 | 16.4 | 26.6 | inactive
PBX4 | SID131505448 | 0 | -3.1 | 0.6 | -6.8 | inactive
ZMAT3 | SID131504889 | 0 | -4.2 | -12.5 | 4 | inactive
ITIH4 | SID131509294 | 0 | 2 | 11 | -7 | inactive
USH2A | SID131516472 | 0 | 10.9 | 17.6 | 4.2 | inactive
S1PR4 | SID131514458 | 0 | 7.8 | 16.9 | -1.2 | inactive
ARHGAP31 | SID131503093 | 0 | -13.8 | 5.4 | -33.1 | inactive
PGS1 | SID131512402 | 0 | 5.4 | -6.6 | 17.5 | inactive
LIMK1 | SID131519223 | 1 | 3.8 | -1.1 | 8.8 | inactive
GLRX5 | SID131516136 | 0 | 10.3 | 16.2 | 4.5 | inactive
CLIC1 | SID131500369 | -2 | -17.4 | -11.5 | -23.3 | active
FITM1 | SID131518866 | 0 | 33.9 | -1.1 | 69 | inactive
PLEKHB1 | SID131504727 | 0 | -4.6 | -9.3 | 0 | inactive
NOL11 | SID131510400 | 0 | 3.2 | -5.9 | 12.3 | inactive
LOC343702 | SID131507941 | 0 | 0.4 | 9.3 | -8.4 | inactive
TDG | SID131512587 | 0 | 5.6 | 5 | 6.3 | inactive
DPM2 | SID131509935 | 0 | 2.7 | 2.7 | 2.7 | inactive
KLF8 | SID131523046 | 2 | 17.8 | 21.6 | 14 | active
ADGRL2 | SID131521080 | 1 | 12.1 | 19.4 | 4.8 | inactive
PTGER4 | SID131514174 | 0 | 7.5 | 0.6 | 14.4 | inactive
BRINP2 | SID131511815 | 0 | 4.8 | -0.6 | 10.1 | inactive
LOC440424 | SID131514797 | 0 | 8.3 | 3 | 13.5 | inactive
EMILIN3 | SID131514431 | 0 | 7.8 | 3.4 | 12.2 | inactive
UGP2 | SID131521436 | 1 | 13.4 | 5.5 | 21.3 | inactive
PPFIA1 | SID131506482 | 0 | -1.4 | -0.2 | -2.6 | inactive
SHBG | SID131507322 | 0 | -0.3 | -7.4 | 6.9 | inactive
LOC119358 | SID131506465 | 0 | -1.5 | 1.5 | -4.5 | inactive
ACO2 | SID131513847 | 0 | 7.1 | 8.2 | 6 | inactive
LOC442495 | SID131511411 | 0 | 4.3 | 0.7 | 7.9 | inactive
MROH2A | SID131516963 | 0 | 12.1 | 13.6 | 10.5 | inactive
OR13G1 | SID131512396 | 0 | 5.4 | 5.6 | 5.3 | inactive
LOC127295 | SID131514093 | 0 | 7.4 | 16.1 | -1.3 | inactive
NPM1 | SID131516563 | 0 | 11.1 | 9.5 | 12.7 | inactive
ZFP91 | SID131514265 | 0 | 7.6 | 9.4 | 5.7 | inactive
BCAR3 | SID131502154 | -1 | -4.9 | -24.8 | 14.9 | inactive
LOC128387 | SID131509999 | 0 | 2.8 | 1.2 | 4.3 | inactive
SLC25A41 | SID131517191 | 0 | 12.7 | 19.1 | 6.3 | inactive
LINC01579 | SID131508984 | 0 | 1.7 | 12.2 | -8.8 | inactive
GOLGA2P7 | SID131511362 | 0 | 4.3 | -13.2 | 21.7 | inactive
P4HA1 | SID131503511 | 0 | -9.5 | -41 | 22 | inactive
OXER1 | SID131515033 | 0 | 8.6 | -3.8 | 21 | inactive
ST6GAL1 | SID131520663 | 1 | 10.7 | 14.5 | 6.9 | inactive
IGDCC4 | SID131509058 | 0 | 1.8 | 18.8 | -15.3 | inactive
OAS1 | SID131502947 | 0 | -17.5 | -40.3 | 5.2 | inactive
MARCHF3 | SID131506987 | 0 | -0.7 | -6.7 | 5.2 | inactive
MAMSTR | SID131503999 | 0 | -6.8 | -3.8 | -9.9 | inactive

Targets listed so far whose target name begins with A or a:
Target gene | PubChem SID | two-siRNA summed score (-2 to +2) | mean protection from cisplatin (shift in death) (%) | protection from cisplatin (shift in death), siRNA C (%) | protection from cisplatin (shift in death), siRNA D (%) | Call
ARHGAP31 | SID131503093 | 0 | -13.8 | 5.4 | -33.1 | inactive
ADGRL2 | SID131521080 | 1 | 12.1 | 19.4 | 4.8 | inactive
ACO2 | SID131513847 | 0 | 7.1 | 8.2 | 6 | inactive
